No constants are given. Whether binding was seen depends on the method and setting. In cells and extracts the contact can be indirect. Some entries that bind do so weakly or less than the wild type.

Protein sequences, listed by entry. Tags and fused reporters are not part of them.
UniProt P13864: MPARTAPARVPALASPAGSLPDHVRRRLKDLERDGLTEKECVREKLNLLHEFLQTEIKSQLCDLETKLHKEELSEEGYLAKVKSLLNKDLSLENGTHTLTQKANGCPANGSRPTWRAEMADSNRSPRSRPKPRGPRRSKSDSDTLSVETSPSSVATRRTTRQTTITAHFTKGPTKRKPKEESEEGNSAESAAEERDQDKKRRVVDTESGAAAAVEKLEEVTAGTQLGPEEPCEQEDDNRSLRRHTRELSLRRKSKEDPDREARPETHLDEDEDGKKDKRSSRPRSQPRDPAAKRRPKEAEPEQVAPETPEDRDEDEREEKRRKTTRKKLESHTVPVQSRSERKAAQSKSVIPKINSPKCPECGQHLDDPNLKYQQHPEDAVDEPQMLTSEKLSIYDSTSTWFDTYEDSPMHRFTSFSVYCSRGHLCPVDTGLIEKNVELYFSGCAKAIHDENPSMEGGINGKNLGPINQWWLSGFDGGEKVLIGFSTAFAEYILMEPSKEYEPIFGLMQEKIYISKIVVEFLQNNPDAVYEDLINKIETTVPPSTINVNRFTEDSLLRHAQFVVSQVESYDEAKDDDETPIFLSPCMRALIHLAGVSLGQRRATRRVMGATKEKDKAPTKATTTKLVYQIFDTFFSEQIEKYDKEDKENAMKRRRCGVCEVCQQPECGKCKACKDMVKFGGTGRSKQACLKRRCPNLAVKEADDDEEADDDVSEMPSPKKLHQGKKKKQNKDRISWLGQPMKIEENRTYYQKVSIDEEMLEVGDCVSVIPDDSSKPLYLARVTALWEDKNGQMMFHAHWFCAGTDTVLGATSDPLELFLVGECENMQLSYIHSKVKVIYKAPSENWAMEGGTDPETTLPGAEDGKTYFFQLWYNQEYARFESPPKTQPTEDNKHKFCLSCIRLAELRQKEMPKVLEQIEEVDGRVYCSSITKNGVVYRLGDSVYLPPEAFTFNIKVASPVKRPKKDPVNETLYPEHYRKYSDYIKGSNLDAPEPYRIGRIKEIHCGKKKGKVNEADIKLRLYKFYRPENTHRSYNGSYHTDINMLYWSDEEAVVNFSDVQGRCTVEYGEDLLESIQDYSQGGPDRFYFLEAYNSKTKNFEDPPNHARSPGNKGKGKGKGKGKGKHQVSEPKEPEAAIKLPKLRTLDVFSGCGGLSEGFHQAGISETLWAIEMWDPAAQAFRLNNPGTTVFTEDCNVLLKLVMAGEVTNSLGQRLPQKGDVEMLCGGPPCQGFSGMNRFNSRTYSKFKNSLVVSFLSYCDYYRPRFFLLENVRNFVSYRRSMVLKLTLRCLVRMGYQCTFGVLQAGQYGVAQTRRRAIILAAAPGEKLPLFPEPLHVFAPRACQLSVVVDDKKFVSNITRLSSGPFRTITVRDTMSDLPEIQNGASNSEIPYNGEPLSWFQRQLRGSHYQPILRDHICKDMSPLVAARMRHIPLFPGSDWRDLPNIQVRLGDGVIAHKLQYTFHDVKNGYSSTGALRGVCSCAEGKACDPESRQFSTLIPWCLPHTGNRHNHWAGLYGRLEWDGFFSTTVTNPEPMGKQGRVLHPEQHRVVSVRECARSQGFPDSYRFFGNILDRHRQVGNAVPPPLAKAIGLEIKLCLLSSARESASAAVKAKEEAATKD

The test concerns the target T1, Small Heterodimer Partner (SHP/NR0B2), endogenous in mouse liver (mouse (endogenous in mouse liver)) (UniProt Q62227).
T1 sequence: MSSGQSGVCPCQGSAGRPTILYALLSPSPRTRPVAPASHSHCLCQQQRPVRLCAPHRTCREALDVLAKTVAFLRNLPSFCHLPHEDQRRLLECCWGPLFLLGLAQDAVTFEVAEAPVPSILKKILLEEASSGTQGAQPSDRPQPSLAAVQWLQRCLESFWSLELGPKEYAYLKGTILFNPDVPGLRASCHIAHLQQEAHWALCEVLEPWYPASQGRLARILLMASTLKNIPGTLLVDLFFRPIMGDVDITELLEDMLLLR
Nature of the test: co-IP; mouse liver extracts; mice fasted overnight and treated with vehicle or FGF19 for 2 h, or refed normal chow for the indicated times (C57BL/6, FGF15-KO mice or littermates); CoIP buffer 50 mM Tris-HCl pH 8.0, 150 mM NaCl, 2 mM EDTA, 0.5% NP-40, 5% glycerol; 1-2 ug antibody 3 h, protein G agarose; bound proteins detected by IB.

In the case of “DNMT1, endogenous in mouse liver (from UniProt P13864 1-1620) (enzyme)”, the binding entry is listed as “no binding”.

Consider “DNMT3B, endogenous in mouse liver (from UniProt O88509 1-859) (enzyme)”, for which the binding entry is “binds”.

The values above are taken from article PMC7686350.
